Some of the results follow.
Tests used:
Experiment in all cases: log2 fold change, soluble protein after heating vs DMSO (PISA); higher = thermal stabilisation; K562 lysate, 10 uM; active = over 0.2 and 3.5 SD of the protein, either way, in both replicates (recomputed)
[1] = compound: C1=CC=C(C=C1)[C@H](COC2=CC3=C(C=C2)NC(=O)N3)NC(=O)C4=CC=CN(C4=O)CC5=CC(=C(C=C5)F)F
Procedure, shortened: (§1)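 K562 pellets were dounce-homogenised in PBS pH 7.4 with 1 mM MgCl2, and the crude extract at 1 mg/mL protein was treated with 10 μM compound for 30 min. Aliquots were heated for 3 min across 48°C-58°C, pooled, and brought to 0.5% NP-40 at 4°C; soluble protein was the supernatant after 21,000xg for 90 min. Soluble protein was quantified by TMTpro 16plex LC-MS/MS with channel sums equalised, and reported as log2 fold change in thermal stability against DMSO controls, with values from duplicates.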

Chains of the proteins cited; added tags and fusions are not shown. Lines headed by an entry give the natural chain unless they say otherwise; changes in a name come on top.
UniProt P42696: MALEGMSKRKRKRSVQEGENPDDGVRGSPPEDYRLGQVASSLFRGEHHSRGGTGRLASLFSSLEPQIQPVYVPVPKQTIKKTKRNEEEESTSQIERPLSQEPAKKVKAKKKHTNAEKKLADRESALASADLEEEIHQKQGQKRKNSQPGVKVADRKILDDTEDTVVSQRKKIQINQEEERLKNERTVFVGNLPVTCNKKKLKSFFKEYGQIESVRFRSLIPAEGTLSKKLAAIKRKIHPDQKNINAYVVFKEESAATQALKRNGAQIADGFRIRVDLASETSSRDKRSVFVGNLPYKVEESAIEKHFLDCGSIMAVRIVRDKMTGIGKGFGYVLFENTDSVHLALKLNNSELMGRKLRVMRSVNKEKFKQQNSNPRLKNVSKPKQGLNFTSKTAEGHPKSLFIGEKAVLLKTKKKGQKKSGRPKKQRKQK
UniProt Q16576, whole entry, looked up: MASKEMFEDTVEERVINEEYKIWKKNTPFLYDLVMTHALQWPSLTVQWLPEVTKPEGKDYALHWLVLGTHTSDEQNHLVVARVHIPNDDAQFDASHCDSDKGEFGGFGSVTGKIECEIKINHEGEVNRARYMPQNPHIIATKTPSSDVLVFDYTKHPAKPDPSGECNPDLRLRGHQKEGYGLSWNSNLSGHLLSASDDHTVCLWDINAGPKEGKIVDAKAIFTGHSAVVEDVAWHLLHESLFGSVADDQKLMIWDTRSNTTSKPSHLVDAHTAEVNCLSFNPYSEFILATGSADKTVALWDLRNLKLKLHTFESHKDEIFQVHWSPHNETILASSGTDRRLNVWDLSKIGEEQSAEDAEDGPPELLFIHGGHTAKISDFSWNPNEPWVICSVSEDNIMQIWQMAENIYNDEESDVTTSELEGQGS
UniProt Q5T8P6: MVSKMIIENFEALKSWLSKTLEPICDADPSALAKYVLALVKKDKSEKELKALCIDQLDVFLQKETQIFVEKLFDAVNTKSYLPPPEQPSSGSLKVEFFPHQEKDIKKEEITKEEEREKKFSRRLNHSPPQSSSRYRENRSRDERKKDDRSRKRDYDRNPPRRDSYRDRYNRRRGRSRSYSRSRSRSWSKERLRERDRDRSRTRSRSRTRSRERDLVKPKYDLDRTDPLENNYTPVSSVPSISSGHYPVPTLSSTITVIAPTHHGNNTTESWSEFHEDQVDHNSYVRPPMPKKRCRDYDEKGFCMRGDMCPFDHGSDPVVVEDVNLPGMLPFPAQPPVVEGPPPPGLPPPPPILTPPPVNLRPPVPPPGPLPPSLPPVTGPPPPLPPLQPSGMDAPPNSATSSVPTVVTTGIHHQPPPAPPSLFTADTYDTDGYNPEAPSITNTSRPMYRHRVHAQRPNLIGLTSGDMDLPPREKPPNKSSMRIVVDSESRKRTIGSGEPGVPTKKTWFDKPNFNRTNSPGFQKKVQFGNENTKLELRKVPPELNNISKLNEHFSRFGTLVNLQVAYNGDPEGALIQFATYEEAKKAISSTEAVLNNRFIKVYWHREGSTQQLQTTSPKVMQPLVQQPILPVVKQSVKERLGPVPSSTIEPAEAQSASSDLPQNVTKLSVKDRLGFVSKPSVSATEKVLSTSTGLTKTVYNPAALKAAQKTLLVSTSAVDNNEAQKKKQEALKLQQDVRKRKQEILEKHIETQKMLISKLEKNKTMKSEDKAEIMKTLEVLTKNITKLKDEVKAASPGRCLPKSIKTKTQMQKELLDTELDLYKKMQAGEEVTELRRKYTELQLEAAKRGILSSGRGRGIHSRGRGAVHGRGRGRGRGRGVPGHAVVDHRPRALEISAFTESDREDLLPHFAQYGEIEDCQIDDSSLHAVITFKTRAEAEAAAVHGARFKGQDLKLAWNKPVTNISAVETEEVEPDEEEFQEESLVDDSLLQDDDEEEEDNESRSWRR
UniProt Q92546: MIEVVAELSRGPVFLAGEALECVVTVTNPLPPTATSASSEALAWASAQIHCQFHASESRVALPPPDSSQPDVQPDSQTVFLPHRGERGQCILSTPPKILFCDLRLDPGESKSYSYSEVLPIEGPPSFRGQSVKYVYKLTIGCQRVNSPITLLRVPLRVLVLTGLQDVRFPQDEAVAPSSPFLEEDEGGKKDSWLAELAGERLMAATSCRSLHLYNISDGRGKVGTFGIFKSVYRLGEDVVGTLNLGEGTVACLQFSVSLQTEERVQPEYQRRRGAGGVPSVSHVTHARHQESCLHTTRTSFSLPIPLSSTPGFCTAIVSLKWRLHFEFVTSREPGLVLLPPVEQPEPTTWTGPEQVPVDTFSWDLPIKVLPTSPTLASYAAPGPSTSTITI
UniProt Q8WZA2: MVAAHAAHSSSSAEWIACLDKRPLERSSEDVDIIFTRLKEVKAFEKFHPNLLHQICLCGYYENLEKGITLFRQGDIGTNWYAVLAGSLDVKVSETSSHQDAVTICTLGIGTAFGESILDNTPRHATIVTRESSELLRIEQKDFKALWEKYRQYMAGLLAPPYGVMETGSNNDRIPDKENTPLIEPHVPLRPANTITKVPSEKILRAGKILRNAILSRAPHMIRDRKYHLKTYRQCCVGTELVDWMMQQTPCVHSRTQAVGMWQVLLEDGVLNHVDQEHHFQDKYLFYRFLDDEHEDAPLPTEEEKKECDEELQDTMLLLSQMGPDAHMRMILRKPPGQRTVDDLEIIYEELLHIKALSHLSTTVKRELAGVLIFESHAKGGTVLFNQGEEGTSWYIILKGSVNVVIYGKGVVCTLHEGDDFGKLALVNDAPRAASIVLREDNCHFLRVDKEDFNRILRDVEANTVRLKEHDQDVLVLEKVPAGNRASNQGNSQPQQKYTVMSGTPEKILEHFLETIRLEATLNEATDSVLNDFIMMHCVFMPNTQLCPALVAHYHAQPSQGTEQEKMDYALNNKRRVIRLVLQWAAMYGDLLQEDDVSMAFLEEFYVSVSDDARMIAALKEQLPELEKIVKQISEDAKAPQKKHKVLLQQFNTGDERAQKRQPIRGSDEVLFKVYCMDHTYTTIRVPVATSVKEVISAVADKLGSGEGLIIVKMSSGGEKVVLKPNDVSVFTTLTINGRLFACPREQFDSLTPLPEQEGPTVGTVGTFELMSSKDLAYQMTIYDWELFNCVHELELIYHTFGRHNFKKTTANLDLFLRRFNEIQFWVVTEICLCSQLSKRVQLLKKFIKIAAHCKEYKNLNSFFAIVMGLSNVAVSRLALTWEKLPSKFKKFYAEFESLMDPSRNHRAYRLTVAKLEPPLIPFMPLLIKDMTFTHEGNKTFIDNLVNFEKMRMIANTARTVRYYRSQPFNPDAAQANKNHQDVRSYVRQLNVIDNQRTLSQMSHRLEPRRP
UniProt Q15291, whole entry, looked up: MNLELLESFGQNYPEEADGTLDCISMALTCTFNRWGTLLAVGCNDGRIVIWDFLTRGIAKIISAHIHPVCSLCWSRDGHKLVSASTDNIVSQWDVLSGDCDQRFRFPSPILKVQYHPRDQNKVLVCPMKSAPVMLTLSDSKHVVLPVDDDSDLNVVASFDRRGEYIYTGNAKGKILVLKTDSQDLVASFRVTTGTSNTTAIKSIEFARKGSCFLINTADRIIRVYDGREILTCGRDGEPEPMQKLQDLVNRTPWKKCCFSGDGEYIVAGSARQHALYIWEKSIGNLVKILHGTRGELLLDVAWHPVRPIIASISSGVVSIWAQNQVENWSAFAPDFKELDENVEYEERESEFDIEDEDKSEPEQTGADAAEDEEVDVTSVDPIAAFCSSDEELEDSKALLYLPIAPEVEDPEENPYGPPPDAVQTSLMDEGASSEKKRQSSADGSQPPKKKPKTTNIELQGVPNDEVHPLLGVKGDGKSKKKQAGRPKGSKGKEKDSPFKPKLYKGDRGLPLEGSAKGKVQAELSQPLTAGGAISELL
UniProt Q9H6H4: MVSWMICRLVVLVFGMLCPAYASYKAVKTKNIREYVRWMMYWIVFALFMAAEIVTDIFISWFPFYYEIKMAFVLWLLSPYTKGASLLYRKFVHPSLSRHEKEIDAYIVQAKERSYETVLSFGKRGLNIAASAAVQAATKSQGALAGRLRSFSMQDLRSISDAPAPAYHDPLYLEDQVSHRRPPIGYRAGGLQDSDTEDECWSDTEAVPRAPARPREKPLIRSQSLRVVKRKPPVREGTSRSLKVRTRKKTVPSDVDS
UniProt P06400: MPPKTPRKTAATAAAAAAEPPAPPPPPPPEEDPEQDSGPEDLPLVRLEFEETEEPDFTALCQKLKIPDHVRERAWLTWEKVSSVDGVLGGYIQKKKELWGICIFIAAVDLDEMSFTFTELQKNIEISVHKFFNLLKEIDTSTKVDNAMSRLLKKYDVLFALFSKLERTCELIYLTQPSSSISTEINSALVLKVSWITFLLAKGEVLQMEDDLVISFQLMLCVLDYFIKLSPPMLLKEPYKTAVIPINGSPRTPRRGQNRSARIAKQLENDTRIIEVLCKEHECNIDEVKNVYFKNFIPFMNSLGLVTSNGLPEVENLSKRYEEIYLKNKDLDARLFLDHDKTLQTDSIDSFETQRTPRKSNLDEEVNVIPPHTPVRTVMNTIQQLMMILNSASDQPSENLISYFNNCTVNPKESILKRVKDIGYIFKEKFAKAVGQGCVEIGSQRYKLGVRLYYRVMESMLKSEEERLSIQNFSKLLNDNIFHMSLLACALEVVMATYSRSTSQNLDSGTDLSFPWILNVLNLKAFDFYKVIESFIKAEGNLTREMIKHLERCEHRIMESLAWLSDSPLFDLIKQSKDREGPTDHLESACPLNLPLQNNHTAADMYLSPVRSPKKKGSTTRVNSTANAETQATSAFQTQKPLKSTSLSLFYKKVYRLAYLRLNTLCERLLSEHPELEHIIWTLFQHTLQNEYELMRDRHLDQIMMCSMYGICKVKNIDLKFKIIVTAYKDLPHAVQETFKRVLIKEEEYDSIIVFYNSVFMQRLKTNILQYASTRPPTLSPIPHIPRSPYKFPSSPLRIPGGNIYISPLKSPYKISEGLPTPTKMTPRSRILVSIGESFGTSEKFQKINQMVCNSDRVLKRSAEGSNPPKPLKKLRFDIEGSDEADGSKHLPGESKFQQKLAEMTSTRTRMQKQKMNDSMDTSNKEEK
UniProt Q969G6: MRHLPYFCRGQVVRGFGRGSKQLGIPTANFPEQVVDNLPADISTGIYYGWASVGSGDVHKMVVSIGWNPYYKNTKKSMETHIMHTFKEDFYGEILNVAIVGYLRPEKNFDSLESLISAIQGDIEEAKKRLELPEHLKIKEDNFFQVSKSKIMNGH
UniProt Q9UKL0, whole entry, looked up: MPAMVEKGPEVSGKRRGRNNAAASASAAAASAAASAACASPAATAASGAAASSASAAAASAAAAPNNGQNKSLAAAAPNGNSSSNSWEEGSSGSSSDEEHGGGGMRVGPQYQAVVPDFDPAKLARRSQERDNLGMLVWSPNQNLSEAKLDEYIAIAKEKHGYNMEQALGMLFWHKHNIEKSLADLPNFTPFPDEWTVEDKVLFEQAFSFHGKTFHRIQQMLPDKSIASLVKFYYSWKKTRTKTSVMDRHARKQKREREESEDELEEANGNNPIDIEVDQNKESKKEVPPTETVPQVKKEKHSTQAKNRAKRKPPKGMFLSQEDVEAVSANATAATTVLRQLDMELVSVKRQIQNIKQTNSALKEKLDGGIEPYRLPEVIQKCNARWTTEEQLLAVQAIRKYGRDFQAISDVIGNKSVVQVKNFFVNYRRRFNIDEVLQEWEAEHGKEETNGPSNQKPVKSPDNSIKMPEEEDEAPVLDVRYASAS
UniProt Q6JBY9, whole entry, looked up: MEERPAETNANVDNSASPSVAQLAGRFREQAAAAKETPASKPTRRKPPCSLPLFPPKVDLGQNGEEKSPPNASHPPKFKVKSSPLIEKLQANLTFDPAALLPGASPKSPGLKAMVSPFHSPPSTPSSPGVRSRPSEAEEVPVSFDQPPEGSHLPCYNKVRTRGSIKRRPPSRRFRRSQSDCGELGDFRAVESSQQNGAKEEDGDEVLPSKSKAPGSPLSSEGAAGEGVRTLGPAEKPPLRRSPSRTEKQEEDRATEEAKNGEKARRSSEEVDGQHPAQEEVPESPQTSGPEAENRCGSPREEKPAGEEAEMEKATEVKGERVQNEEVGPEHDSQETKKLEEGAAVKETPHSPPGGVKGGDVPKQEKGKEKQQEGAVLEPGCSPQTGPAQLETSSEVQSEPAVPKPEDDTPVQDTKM
UniProt Q9BWF3: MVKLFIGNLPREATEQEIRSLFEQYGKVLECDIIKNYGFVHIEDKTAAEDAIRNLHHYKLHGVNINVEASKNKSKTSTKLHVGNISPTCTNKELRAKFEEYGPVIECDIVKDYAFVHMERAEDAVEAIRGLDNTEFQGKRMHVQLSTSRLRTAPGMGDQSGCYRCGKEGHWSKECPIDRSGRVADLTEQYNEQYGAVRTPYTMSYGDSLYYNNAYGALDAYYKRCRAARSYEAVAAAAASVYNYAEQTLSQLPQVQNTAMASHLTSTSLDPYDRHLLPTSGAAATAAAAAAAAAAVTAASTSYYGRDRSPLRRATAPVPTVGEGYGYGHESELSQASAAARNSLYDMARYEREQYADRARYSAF
UniProt Q00765: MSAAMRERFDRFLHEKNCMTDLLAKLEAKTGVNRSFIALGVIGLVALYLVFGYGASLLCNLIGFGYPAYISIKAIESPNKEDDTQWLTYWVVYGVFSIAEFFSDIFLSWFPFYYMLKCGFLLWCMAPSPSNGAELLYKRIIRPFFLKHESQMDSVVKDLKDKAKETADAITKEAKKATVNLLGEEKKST

[2] = compound: CC1=C(SC2=C1C(=N[C@H](C3=NN=C(N32)C)CC(=O)N)C4=CC=C(C=C4)Cl)C
Procedure, shortened: as §1

[3] = compound: CC1=C2C(=CC=C1)N=C(N(C2=O)C3=CC=CC=C3C)CN4C=NC5=C(N=CN=C54)N
Procedure, shortened: as §1

[4] = compound: Cc1sc2c(c1C)C(c1ccc(Cl)cc1)=N[C@@H](CC(=O)OC(C)(C)C)c1nnc(C)n1-2
Procedure, shortened: as §1

[5] = compound: c1ccc([C@@H]2C[C@H]2NC2CCNCC2)cc1
Procedure, shortened: as §1

Target	log2 fold change [1]	log2 fold change [2]	log2 fold change [3]	log2 fold change [4]	log2 fold change [5]
RBM6 (UniProt P78332)	inactive: -0.042	inactive: 0.018	inactive: 0.009	inactive: 0.025	inactive: 0.037
RBIS (UniProt Q8N0T1)	inactive: 0.091	inactive: -0.047	inactive: 0.056	inactive: 0.03	inactive: -0.126
RGS10 (UniProt O43665)	inactive: 0.016	inactive: 0.032	inactive: -0.002	inactive: 0.011	inactive: 0.019
RFC3 (UniProt P40938)	inactive: -0.032	inactive: 0.003	inactive: 0.026	inactive: 0.055	inactive: 0.024
RBM34 (UniProt P42696)	inactive: 0.048	inactive: 0.012	inactive: -0.013	inactive: 0.05	inactive: 0.021
RBBP7 isoform 2 (UniProt Q16576)	inactive: -0.012	inactive: -0.009	inactive: -0.03	inactive: -0.01	inactive: -0.033
REV3L (UniProt O60673)	inactive: 0.003	inactive: 0.136	inactive: 0.158	inactive: -0.241	–
RCC1 isoform 2 (UniProt P18754)	inactive: 0.023	inactive: 0.026	inactive: -0.013	inactive: 0.045	inactive: 0.014
RBM41 (UniProt Q96IZ5)	inactive: 0.012	inactive: 0.02	–	–	–
REV1 (UniProt Q9UBZ9)	inactive: -0.014	inactive: -0.06	inactive: -0.052	inactive: 0.088	inactive: 0.022
RBM12B (UniProt Q8IXT5)	inactive: -0.416	inactive: -0.211	–	–	–
RBCK1 (UniProt Q9BYM8)	inactive: -0.114	inactive: 0.039	inactive: 0.041	inactive: -0.049	inactive: 0.069
RBL1 (UniProt P28749)	inactive: -0.028	inactive: 0.106	inactive: -0.001	inactive: 0.004	inactive: 0.085
RBBP7 (UniProt Q16576)	inactive: -0.029	inactive: 0.013	inactive: 0.009	inactive: -0.042	–
RFXANK (UniProt O14593)	inactive: -0.033	inactive: -0.043	inactive: -0.06	inactive: 0.022	inactive: 0.079
RBBP4 isoform 2 (UniProt Q09028)	inactive: 0.062	inactive: 0.013	–	–	–
RBM26 isoform 3 (UniProt Q5T8P6)	inactive: -0.059	inactive: 0.04	inactive: 0.074	inactive: -0.047	–
RBM19 (UniProt Q9Y4C8)	inactive: -0.009	inactive: 0.059	inactive: -0.095	inactive: 0.056	inactive: 0
RBMX (UniProt P38159)	inactive: 0.089	inactive: -0.01	inactive: -0.004	inactive: -0.015	inactive: -0.072

Target	log2 fold change [1]	log2 fold change [2]	log2 fold change [3]	log2 fold change [4]	log2 fold change [5]
RFFL (UniProt Q8WZ73)	inactive: 0.348	inactive: 0.118	inactive: -0.11	inactive: -0.054	inactive: -0.065
RGP1 (UniProt Q92546)	inactive: -0.005	inactive: -0.039	inactive: 0.055	inactive: 0.093	inactive: -0.197
RBM15 (UniProt Q96T37)	inactive: 0.16	inactive: 0.145	inactive: -0.033	inactive: 0.021	inactive: 0.199
RAPGEF4 (UniProt Q8WZA2)	inactive: 0	inactive: 0.092	inactive: 0.06	inactive: -0.274	inactive: -0.558
REXO4 (UniProt Q9GZR2)	inactive: 0.009	inactive: -0.003	inactive: 0.029	inactive: 0.051	inactive: 0.138
RCN1 (UniProt Q15293)	inactive: 0.014	inactive: 0.032	inactive: -0.003	inactive: -0.032	inactive: 0.007
RBBP9 (UniProt O75884)	inactive: -0.068	inactive: 0.081	inactive: 0.028	–	–
RFESD isoform 2 (UniProt Q8TAC1)	inactive: 0.006	inactive: -0.015	inactive: 0.048	inactive: -0.064	inactive: -0.089
RFLNB (UniProt Q8N5W9)	inactive: 0.028	inactive: -0.033	inactive: 0.138	inactive: 0.015	inactive: 0.004
RBBP5 isoform 2 (UniProt Q15291)	inactive: 0.213	inactive: -0.082	inactive: 0.165	inactive: -0.074	–
RFC5 (UniProt P40937)	inactive: -0.024	inactive: 0.018	inactive: 0.041	inactive: 0.034	inactive: 0.027
RDH13 (UniProt Q8NBN7)	inactive: -0.094	inactive: 0.05	inactive: 0.016	inactive: -0.007	inactive: 0.021
RFT1 (UniProt Q96AA3)	inactive: 0.032	inactive: -0.058	inactive: 0.048	inactive: -0.008	inactive: 0.07
RFWD3 (UniProt Q6PCD5)	inactive: -0.058	inactive: 0.132	inactive: 0	inactive: -0.072	inactive: 0.049
RBM20 (UniProt Q5T481)	inactive: -0.361	inactive: 0.115	inactive: 0.068	inactive: 0.034	–
RECQL4 (UniProt O94761)	inactive: 0.002	inactive: -0.012	inactive: 0.073	inactive: -0.011	inactive: 0.154
RBX1 (UniProt P62877)	inactive: 0.147	inactive: -0.028	inactive: 0.04	inactive: 0.123	–
RERE (UniProt Q9P2R6)	inactive: 0.016	inactive: 0.037	inactive: -0.041	inactive: -0.035	inactive: -0.129
REEP4 (UniProt Q9H6H4)	inactive: -0.037	inactive: 0.071	inactive: 0.031	inactive: 0.012	inactive: 0.007

Target	log2 fold change [1]	log2 fold change [2]	log2 fold change [3]	log2 fold change [4]	log2 fold change [5]
RETSAT (UniProt Q6NUM9)	inactive: 0.103	inactive: -0.037	inactive: 0.148	inactive: -0.145	inactive: -0.015
RBBP6 (UniProt Q7Z6E9)	inactive: -0.009	inactive: -0.013	inactive: 0.047	inactive: 0.028	inactive: 0.01
RARS (UniProt P54136)	inactive: -0.014	inactive: 0.038	inactive: 0.024	inactive: 0.028	inactive: 0.091
RB1 (UniProt P06400)	inactive: 0.017	inactive: -0.009	inactive: -0.002	inactive: 0.012	inactive: -0.012
RBM28 (UniProt Q9NW13)	inactive: -0.008	inactive: 0.017	inactive: -0.009	inactive: 0.022	inactive: 0.04
RFK (UniProt Q969G6)	inactive: -0.035	inactive: 0.008	inactive: 0.006	inactive: 0.009	inactive: 0.034
RDH10 (UniProt Q8IZV5)	inactive: 0.147	inactive: 0.018	inactive: 0.006	inactive: -0.051	inactive: -0.06
RCOR1 (UniProt Q9UKL0)	inactive: -0.034	inactive: 0.03	inactive: -0.003	inactive: -0.023	active: 0.494
RBM33 (UniProt Q96EV2)	inactive: -0.028	inactive: -0.014	inactive: 0.052	inactive: -0.024	inactive: 0.025
RCSD1 (UniProt Q6JBY9)	inactive: 0.008	inactive: 0.009	inactive: 0.009	inactive: -0.044	inactive: -0.028
RBM4 (UniProt Q9BWF3)	inactive: 0	inactive: 0.016	inactive: 0.022	inactive: 0.03	inactive: -0.007
RCN3 (UniProt Q96D15)	inactive: 0.026	inactive: 0.011	inactive: 0.038	inactive: -0.001	inactive: 0.072
RB1CC1 (UniProt Q8TDY2)	inactive: 0.011	inactive: 0.02	inactive: 0.024	inactive: -0.041	inactive: -0.038
RC3H1 (UniProt Q5TC82)	inactive: 0	inactive: 0.016	inactive: 0.012	inactive: 0.037	inactive: -0.024
RBM7 (UniProt Q9Y580)	inactive: 0.034	inactive: 0.025	inactive: -0.013	inactive: 0.059	inactive: 0.073
REEP5 (UniProt Q00765)	inactive: 0.007	inactive: 0.009	inactive: 0.028	inactive: 0.022	inactive: -0.092
RFC1 (UniProt P35251)	inactive: 0.004	inactive: 0.047	inactive: 0.037	inactive: 0.095	inactive: -0.018
RELA (UniProt Q04206)	inactive: 0.041	inactive: 0.005	inactive: 0.008	inactive: 0.03	inactive: -0.029
